This experiment deals with INSIG. Put plainly: co-IP; HEK293T cells transfected with expression constructs (over-expressed); lysates in NP-40 buffer (150 mM NaCl, 5 mM EDTA, 1% NP-40, 50 mM Tris-HCl, pH 7.4), overnight at 4 °C with antibodies and protein A/G magnetic Dynabeads, three washes with lysis buffer, immunoblot. In general terms: A western blot detects proteins with antibodies after separation by electrophoresis.

No constants are given. Whether binding was seen depends on the method and setting. Binding seen in cells or lysates may run through a third protein.

B1: SREBP Regulating Gene SPRING (C12ORF49) (protein, UniProt Q9H741 1-205)
chain: MVNLAAMVWRRLLRKRWVLALVFGLSLVYFLSSTFKQEERAVRDRNLLQVHDHNQPIPWKVQFNLGNSSRPSNQCRNSIQGKHLITDELGYVCERKDLLVNGCCNVNVPSTKQYCCDGCWPNGCCSAYEYCVSCCLQPNKQLLLERFLNRAAVAFQNLFMAVEDHFELCLAKCRTSSQSVQHENTYRDPIAKYCYGESPPELFPA
On to B1, for which the binding entry is on record as “no binding”.

The values are drawn from article PMC7048761.
